Experimental data: publication PMC6533717
Results are given in words; binding and its absence hold for the method and conditions named. In cells and extracts the contact can be indirect. Some results given as binding are weak or reduced against the parent protein; the word gives no strength. Where a sequence is shown, tags or fusion partners need not be part of it.

Chains of the proteins cited; added tags and fusions are not shown.
UniProt P20226: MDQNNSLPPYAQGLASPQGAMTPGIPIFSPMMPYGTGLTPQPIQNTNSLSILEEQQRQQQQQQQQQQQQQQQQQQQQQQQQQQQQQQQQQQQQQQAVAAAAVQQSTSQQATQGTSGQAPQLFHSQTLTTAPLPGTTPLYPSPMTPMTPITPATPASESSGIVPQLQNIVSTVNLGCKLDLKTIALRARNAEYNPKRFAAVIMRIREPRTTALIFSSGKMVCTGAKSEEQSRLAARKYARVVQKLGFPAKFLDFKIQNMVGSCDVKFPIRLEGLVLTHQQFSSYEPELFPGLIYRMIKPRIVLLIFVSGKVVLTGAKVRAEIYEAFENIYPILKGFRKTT

T1: FLAG-tagged Brf1 (B-related factor 1) (UniProt Q92994)
T1 sequence: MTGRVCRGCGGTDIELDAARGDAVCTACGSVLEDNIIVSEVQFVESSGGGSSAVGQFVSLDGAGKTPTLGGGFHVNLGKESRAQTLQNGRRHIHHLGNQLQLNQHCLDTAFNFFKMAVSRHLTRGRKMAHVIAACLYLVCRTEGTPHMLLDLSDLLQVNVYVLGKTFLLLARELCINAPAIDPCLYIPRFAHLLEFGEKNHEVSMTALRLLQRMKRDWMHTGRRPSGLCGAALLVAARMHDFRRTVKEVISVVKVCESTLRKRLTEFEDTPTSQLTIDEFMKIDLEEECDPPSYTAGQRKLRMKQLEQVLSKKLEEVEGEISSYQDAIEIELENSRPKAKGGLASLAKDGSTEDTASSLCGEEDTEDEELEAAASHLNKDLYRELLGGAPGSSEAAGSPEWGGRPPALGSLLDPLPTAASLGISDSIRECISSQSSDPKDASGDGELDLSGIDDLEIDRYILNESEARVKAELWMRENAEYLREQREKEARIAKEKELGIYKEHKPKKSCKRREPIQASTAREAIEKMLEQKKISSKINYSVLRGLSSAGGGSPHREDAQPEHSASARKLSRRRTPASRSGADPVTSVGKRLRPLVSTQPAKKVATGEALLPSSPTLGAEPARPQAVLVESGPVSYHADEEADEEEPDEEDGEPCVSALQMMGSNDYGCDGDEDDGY

T2: CFP-tagged Brf1 (UniProt Q92994)
T2 sequence: T1 sequence

B1: myc-tagged Brf1 (B-related factor 1) (protein, UniProt Q92994 1-677)
chain: T1 sequence
B2: POLR3D, one subunit of Pol III (endogenous) (protein, UniProt P05423 1-398)
chain: MSEGNAAGEPSTPGGPRPLLTGARGLIGRRPAPPLTPGRLPSIRSRDLTLGGVKKKTFTPNIISRKIKEEPKEEVTVKKEKRERDRDRQREGHGRGRGRPEVIQSHSIFEQGPAEMMKKKGNWDKTVDVSDMGPSHIINIKKEKRETDEETKQILRMLEKDDFLDDPGLRNDTRNMPVQLPLAHSGWLFKEENDEPDVKPWLAGPKEEDMEVDIPAVKVKEEPRDEEEEAKMKAPPKAARKTPGLPKDVSVAELLRELSLTKEEELLFLQLPDTLPGQPPTQDIKPIKTEVQGEDGQVVLIKQEKDREAKLAENACTLADLTEGQVGKLLIRKSGRVQLLLGKVTLDVTMGTACSFLQELVSVGLGDSRTGEMTVLGHVKHKLVCSPDFESLLDHKHR
B3: CFP-tagged Brf1 (protein, UniProt Q92994 1-677)
chain: T1 sequence
B4: YFP-tagged POLR3D (protein, UniProt P05423 1-398)
chain: B2 chain

Key:
[1] = target: T1, FLAG-tagged Brf1 (B-related factor 1); test: co-IP; RKO cells transfected with plasmids for FLAG- or Myc-tagged proteins, with or without triptolide; lysed in RIPA buffer (20 mM Tris-HCl pH 7.5, 150 mM NaCl, 1 mM EDTA, 1% NP-40); precipitated with FLAG beads at 4 °C overnight, washed 3 times; immunoblot
[2] = target: FLAG-tagged TBP (TATA box-binding protein) (UniProt P20226); test: as above
YFP-tagged TBP = YFP-tagged TBP (UniProt P20226); test: FRET or BRET; RKO cells co-expressing CFP- and YFP-tagged proteins, 24 h after transfection; excitation 458 nm, emission scanned 460-600 nm in a plate reader (VarioskanFlash)
CFP-tagged Brf1 = target: T2, CFP-tagged Brf1; test: as above

Row | binding [1] | binding [2] | also measured | Molecule
1 | binds | – | – | TATA box-binding protein (TBP), endogenous (from UniProt P20226 1-339)
2 | – | binds | – | B1
3 | binds | binds | – | B2
4 | – | – | binding (YFP-tagged TBP): binds | B3
5 | – | – | binding (CFP-tagged Brf1): binds | B4
